Assay results from paper doi:10.1101/2020.11.12.379313.
These are yes or no findings as the source states them, for the method shown. In cells and extracts the contact can be indirect. Some binding calls cover weakened binding; strength is not graded here.

Amino acid sequences for entries named in this document (tags omitted). Residues count along the entry.
UniProt P05067, residues 672-770: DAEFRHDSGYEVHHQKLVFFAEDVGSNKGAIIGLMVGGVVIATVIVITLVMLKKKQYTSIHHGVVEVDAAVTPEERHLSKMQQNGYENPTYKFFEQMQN
UniProt Q3TCV3: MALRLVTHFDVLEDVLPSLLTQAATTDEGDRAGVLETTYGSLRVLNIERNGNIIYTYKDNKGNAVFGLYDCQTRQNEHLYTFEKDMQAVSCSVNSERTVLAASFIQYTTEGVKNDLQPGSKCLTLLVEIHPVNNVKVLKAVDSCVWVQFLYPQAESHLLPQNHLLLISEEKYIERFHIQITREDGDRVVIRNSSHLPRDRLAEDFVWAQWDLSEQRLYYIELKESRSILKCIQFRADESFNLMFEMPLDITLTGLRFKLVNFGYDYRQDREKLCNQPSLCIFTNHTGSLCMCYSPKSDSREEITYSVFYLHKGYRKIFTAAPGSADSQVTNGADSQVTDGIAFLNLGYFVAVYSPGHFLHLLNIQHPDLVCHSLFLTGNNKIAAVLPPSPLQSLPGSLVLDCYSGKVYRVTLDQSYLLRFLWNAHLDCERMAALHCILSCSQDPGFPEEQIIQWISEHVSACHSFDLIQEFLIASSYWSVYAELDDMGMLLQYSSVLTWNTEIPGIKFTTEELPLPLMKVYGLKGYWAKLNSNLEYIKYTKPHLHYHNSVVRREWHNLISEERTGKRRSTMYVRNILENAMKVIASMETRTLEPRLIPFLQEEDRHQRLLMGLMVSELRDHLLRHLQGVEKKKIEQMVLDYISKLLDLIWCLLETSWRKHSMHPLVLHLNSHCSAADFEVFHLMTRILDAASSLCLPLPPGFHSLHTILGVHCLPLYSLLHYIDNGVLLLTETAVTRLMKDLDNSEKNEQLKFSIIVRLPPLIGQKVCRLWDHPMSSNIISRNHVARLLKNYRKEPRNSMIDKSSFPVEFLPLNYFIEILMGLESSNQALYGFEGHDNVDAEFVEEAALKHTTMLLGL

Target: Flag-APP-C99 (UniProt P05067)
Test: co-IP

binding: binds
Substance: mouse full length GSAP with HA tag (from UniProt Q3TCV3 1-858)
